Experimental data: paper PMC12559371
No constants are given. Whether binding was seen depends on the method and setting. In cells and extracts the contact can be indirect. Some binding calls cover weakened binding; strength is not graded here.

Chains of the proteins cited; added tags and fusions are not shown.
UniProt Q6A4J8: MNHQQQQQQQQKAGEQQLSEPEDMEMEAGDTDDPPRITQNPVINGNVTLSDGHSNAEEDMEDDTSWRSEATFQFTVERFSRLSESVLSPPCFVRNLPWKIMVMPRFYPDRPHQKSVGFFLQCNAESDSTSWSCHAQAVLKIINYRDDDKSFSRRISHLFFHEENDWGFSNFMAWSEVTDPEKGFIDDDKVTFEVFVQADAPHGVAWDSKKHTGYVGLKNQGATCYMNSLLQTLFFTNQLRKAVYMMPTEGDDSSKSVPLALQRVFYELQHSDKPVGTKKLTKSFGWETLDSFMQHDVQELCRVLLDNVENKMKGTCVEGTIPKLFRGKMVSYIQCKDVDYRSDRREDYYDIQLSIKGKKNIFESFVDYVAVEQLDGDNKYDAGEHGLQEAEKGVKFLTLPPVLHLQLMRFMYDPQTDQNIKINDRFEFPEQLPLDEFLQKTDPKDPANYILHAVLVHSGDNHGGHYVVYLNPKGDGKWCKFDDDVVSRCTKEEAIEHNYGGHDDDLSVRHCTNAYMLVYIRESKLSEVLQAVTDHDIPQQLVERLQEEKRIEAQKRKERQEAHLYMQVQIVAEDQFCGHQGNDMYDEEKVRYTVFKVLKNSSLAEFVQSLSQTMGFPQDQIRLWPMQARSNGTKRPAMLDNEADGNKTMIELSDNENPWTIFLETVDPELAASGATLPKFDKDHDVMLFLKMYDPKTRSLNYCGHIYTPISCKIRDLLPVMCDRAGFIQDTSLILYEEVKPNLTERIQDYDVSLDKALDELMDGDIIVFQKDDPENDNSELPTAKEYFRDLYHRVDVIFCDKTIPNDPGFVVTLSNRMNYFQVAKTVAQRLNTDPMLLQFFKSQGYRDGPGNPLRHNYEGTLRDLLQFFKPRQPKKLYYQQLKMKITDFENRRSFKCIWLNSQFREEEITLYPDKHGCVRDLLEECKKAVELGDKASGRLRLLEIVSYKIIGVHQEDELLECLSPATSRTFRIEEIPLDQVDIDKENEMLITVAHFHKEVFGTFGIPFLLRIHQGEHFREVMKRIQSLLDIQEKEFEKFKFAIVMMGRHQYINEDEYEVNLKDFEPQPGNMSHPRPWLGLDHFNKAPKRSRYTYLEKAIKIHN
UniProt P52480: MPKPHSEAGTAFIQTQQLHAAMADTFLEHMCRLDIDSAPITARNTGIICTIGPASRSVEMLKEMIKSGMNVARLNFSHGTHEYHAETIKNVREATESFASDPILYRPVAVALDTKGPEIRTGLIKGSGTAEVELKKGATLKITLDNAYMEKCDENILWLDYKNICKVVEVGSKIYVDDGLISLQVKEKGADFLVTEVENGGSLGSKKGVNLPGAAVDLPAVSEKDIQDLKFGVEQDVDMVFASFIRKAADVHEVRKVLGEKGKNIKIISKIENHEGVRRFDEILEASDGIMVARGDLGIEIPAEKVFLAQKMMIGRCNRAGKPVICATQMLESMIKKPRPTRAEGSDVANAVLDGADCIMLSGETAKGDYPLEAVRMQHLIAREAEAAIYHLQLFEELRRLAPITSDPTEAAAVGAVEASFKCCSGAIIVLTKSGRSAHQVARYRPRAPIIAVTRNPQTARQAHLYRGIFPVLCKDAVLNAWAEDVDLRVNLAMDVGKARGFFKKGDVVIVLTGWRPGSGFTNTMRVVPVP

Target: Ubiquitin-specific protease 7 (mouse (endogenous in RAW 264.7)) (UniProt Q6A4J8)
Test: co-IP; cell lysates (100 ug protein) immunoprecipitated with 5 ug anti-USP7 or anti-PKM2 overnight at 4 °C, Protein A agarose beads, blot probed with anti-PKM2; IgG as negative control; normal and acute inflammation (LPS/IFN-γ) conditions

- binding: binds
Substance: Pyruvate kinase M2 (from UniProt P52480 1-531) (enzyme)
